This test concerns the target Regulator of Presynaptic Morphology 1 (RPM-1) fused with Green Fluorescent Protein (C. elegans) (UniProt Q17551). The test can be described thus: affinity purification with mass spectrometry; RPM-1::GFP purified from whole worm lysate with an anti-GFP antibody; binding proteins identified by mass spectrometry and de novo peptide sequencing.

Chains of the proteins cited; added tags and fusions are not shown.
UniProt Q17551: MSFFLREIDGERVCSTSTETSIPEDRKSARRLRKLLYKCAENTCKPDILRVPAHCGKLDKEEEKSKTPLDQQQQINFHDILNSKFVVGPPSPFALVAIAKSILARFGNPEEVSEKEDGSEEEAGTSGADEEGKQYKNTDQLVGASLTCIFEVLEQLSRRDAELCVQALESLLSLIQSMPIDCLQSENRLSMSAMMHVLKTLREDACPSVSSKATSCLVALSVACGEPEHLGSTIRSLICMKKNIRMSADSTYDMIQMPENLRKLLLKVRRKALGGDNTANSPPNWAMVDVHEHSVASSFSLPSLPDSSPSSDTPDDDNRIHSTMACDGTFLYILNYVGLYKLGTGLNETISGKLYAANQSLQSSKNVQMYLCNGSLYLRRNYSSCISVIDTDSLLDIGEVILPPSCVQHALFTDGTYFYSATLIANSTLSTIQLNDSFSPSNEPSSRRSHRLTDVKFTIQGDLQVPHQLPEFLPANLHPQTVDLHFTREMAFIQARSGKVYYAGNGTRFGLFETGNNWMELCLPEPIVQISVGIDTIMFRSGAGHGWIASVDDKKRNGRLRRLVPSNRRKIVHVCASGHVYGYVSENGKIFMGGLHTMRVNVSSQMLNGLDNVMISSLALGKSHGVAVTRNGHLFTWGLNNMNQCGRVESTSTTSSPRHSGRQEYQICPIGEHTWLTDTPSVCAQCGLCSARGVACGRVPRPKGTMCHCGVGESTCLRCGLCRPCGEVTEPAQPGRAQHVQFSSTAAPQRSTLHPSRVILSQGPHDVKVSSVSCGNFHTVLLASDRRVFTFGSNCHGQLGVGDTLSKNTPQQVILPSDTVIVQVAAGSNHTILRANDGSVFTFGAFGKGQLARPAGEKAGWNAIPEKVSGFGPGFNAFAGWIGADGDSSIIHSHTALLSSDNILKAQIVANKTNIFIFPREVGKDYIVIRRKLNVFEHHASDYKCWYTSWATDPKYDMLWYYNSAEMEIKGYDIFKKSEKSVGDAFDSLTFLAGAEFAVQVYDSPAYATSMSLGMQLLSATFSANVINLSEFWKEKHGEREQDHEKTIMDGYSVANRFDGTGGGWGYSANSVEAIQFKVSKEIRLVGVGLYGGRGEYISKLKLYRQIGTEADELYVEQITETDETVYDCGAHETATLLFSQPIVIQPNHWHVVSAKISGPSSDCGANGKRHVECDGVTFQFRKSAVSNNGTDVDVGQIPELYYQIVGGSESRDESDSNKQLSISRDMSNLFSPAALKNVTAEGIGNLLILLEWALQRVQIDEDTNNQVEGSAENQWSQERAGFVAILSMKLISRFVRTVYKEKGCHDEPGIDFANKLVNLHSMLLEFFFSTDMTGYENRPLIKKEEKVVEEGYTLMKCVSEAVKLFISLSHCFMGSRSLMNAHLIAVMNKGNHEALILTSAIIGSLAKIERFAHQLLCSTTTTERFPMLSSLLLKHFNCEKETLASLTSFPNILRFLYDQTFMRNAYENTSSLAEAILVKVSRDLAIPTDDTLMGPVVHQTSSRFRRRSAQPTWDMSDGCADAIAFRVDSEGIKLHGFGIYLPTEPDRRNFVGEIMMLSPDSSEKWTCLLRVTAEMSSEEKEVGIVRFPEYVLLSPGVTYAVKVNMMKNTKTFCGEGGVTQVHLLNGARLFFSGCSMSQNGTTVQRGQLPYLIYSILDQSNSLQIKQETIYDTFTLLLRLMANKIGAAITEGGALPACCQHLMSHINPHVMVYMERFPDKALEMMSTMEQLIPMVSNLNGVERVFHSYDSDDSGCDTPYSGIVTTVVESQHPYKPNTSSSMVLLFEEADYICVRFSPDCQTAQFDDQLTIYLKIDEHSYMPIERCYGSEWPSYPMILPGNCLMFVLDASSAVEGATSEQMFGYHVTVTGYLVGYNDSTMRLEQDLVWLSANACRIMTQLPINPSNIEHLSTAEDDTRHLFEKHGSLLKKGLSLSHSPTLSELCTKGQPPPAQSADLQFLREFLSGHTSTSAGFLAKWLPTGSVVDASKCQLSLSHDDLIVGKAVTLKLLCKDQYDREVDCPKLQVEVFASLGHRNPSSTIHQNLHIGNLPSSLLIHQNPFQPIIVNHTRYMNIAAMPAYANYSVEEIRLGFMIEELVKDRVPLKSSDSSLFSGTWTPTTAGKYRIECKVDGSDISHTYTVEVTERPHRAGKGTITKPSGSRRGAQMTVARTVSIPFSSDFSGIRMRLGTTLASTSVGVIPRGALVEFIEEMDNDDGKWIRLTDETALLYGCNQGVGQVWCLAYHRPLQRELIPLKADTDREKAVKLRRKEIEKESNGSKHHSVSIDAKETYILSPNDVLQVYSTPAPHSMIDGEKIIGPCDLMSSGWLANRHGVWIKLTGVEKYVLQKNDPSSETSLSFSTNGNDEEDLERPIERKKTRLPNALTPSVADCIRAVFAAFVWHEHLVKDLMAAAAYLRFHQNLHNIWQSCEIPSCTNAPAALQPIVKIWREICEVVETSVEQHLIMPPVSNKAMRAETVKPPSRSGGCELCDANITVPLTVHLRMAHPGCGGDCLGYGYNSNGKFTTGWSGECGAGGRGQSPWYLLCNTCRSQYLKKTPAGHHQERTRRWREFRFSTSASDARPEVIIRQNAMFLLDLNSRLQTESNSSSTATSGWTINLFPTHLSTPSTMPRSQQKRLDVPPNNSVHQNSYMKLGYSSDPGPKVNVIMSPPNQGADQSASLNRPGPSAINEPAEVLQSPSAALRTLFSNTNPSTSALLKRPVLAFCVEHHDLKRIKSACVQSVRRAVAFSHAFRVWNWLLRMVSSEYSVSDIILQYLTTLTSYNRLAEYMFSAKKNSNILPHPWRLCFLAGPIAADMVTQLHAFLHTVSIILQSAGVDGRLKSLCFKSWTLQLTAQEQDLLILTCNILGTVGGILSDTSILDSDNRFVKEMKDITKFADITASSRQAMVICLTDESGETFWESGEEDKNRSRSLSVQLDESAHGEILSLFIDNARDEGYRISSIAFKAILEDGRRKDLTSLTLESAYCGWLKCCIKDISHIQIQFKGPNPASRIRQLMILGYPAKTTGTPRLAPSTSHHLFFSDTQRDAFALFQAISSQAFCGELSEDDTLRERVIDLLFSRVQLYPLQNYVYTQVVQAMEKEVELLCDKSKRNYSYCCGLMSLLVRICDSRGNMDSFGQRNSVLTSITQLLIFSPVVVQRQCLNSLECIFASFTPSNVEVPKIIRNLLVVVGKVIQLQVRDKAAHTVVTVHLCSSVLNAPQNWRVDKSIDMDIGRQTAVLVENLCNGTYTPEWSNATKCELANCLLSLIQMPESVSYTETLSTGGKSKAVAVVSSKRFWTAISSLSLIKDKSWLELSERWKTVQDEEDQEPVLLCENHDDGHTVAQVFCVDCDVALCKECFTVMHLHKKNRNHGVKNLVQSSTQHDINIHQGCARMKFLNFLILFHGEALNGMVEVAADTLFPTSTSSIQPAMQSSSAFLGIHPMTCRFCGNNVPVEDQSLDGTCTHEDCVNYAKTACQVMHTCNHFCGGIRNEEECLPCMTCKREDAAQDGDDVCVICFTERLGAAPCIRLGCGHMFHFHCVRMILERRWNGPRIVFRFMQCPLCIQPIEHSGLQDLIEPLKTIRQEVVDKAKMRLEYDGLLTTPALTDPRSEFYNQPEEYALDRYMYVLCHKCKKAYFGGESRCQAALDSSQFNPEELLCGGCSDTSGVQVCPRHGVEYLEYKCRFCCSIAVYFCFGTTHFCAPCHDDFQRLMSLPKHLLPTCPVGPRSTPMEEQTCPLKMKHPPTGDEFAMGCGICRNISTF

No constants are given. Whether binding was seen depends on the method and setting. In cells and extracts the contact can be indirect. These calls come from enrichment with a bait or labelling near it, and not all partners need be listed.

As to “abnormal nuclear Anchorage 1 (ANC-1) (from UniProt Q9N4M4 1-8545)”, the binding entry is “binds”.

The values above are taken from paper PMC4091705.
